Data: patent publication US10758519B2, “UCP-1 expression promoter” (Kao Corporation, priority 2014, dated 2020)
For at least one compound, name, drawing or mass did not settle the structure.

Molecular target: T1, human PPARγ2 ligand-binding site (Homo sapiens, UniProt P37231)
T1 construct: expressed in transfected cells; host or cells: CV-1 (African green monkey kidney)
T1 sequence (P37231 238-503 limits assumed): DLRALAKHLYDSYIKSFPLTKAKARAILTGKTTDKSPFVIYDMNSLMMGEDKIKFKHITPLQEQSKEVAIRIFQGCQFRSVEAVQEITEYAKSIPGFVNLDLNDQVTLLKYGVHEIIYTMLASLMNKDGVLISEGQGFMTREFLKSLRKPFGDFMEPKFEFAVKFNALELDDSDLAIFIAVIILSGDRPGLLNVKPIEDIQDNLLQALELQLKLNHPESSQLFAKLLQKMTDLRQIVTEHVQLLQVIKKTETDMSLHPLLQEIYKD
Assay: PPARγ-activating action, GAL4-PPARγ-LBD luciferase reporter in CV-1 cells, Reference Example 2
Type: cell-based
Conditions: material 0.005% (DHA, EPA 500 μM), approximately 16 hours; relative to control defined as 1; FIG. 21

Compound	PPARγ-activating action
CC/C=C\C/C=C\C/C=C\C/C=C\C/C=C\CCCC(=O)O [eicosapentaenoic acid (EPA), eicosapentaenoic acid]	confirmed to have a PPARγ-activating action
CC/C=C\C/C=C\C/C=C\C/C=C\C/C=C\C/C=C\CCC(=O)O [docosahexaenoic acid (DHA), docosahexaenoic acid]	confirmed to have a PPARγ-activating action
